Results are given in words; binding and its absence hold for the method and conditions named. In cells and extracts the contact can be indirect. Here binding means that the protein was enriched with, or labelled near, the bait; the list need not be complete. Sequences can lack the tags named with a protein.
Target: HA-TvActin (Trichomonas vaginalis) (UniProt P90623)
Test: affinity purification with mass spectrometry; HA-TvActin immunoprecipitated with anti-HA agarose beads from lysate of transgenic TH17 trophozoites (1% Triton X-100, 5 mM EDTA in TBS, 4°C overnight); SDS-PAGE, LC-MS/MS, label-free emPAI

Sequences of proteins named here, by UniProt entry; tags and fusion partners are left off.
UniProt P90623: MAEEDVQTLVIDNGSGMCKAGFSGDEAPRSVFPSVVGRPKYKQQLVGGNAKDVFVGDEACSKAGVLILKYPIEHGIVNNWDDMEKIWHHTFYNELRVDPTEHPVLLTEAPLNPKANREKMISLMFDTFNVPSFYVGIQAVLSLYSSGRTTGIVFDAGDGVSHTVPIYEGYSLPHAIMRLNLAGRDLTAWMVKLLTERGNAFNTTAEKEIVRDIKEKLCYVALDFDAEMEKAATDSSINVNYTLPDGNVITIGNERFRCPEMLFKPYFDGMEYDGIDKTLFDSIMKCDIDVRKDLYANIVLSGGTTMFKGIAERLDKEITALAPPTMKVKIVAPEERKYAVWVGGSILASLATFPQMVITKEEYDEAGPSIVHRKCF

B1: Ribosomal protein S3Ae, putative (protein, UniProt A2DSV0 1-247)
chain: MGASKQQRPKTSKKIKQDSFIKKEWRHVLVPAYFTGKRDIGVTVSNKCARGRVPMDYVNNRVWELSHADMVNDLSHAYRLFSWRSIAAGSEVYTQFAGMRLTHDKLDSIMRKYRTMIDASVDAKTADGFILRLFTIGFTKKLANSHKNHTYANSHKARQVRDVMIKALTDACEANGVEQLCKDFVDEKIENEIVDKCKQICQIESVYITKVKVIKAPALSNEQVKTLKISKDAAQLSLAPTERPTEE
- binding: binds

B2: Tr-type G-domain-containing protein (protein, UniProt A2ECS2 1-841)
chain: MVNFTVAQIREVMNKRHNIRNLSVIAHVDHGKSTLTDSLIARAGIISQENAGEMRFTDTRPDEQERCITIKSTGVSLYYTMPKEDLPEDNVDNGFLINLIDSPGHIDFSAEVTAALRVTDGALVVVDCIEGVCVQTETVLRQALSERIKPVVIINKIDRSLLELNAEPEDMYQTYTKSIDMVNVIIATYTDENGPMGDITVSPAKGTVAFGSGLHSFGFTVTKFAKIYAARFGVPVQKLIPQLWGERFYDPISKCFISHATNEKGQALERSFCQFILKPIVSLSRAIMNGEKDKYTDMFKKLNVKLHDDEIHKEGRELLSAVYRRWIPMSEALLEMIVLHLPSPVKAQAYRAETLYTGPLDDACAKAIRACDPNGPLMLYVSKMVPTTDKGRFYAFGRVFSGTVATGQRVRVMGANYIPGGKDDIHVTNIQRTVLMMGRKVENLQDCPCGNTIGLVGIDQYLVKSGTISDHDDACPIKAMKFSVSPVVRVAVEPKIAQDLPKLVEGLNRLAKSDPCVQVTHEETGEHIIAGAGELHLEICLKDLEEDFAGVPITRSPPVVSFRETVQKLSSCVCMSKSANKLNRLMCQAEPIADNLLKAIEAGDVNPRMDVKTRAKILQNDFGWEQNDARRVWSFGPDSSGPNLLVDTTKSAEYLQEVKEHFISSFQWATKLGVLAEEPLRGVRFNVVEVFLHADAAHRNGGQMVPTGRRVLYASEYTAEPTLVEPVYLCEISAPISVCGGVHAILSKRRGRAFDQTQRDGTPLMNIKAYLPVMESFGFDKDLRGATSGQAFPQMIFDHWEPLEGDPFHAGNGLYEAIKVVRKRKGLSEEVPPLDRYLDKL
- binding: binds

B3: V-ATPase_H_C domain-containing protein (protein, UniProt A2FS41 1-433)
chain: MQRSKHPLFVRLEQRDAIFRDGNPASLSLESENAEDCKAFVSLFQASPENQLTEFVKNKNHAEIFTKLLSTRSDPAPLNLLCAFIDRLLDLDFNATIGALMANSQKLSEGCAKILIGHTADHLNQAFLVRTILLLLGTIISERDTKATTEAFQTFTRTALSLLSAKLNEASIALECVKRALRSEQFRSTFISEKGTKLLLDLLTQAQKASNTDSLYHILFCIWGISFSAEGAGQLSEGDFIPILTKLLSTVQPEREELVRLLTFIIQQLNPSIVFIENAYDYDILRLVRNLQTKHYVDPELTTEIAKVADDMAQALKKLSLWDKYVREVKSGKLKNTISHSSELFWKANVERFGENNFAVLIALRDLLKSDDEETVTVACHDIGEYVHRHPLGRIKVEEIHAKEMIMELLINKNQNIVSQALRTTQLLLLRNN
- binding: binds

B4: Uncharacterized protein (TVAG_098000) (protein, UniProt A2E2D0 1-1315)
chain: MISSYGTVLFQKTIDVLVSQRVTDKQPFIESILQSPTVDEYILKIYERSNSLVDQVQGEKLFLLALLLTSKHYPESAEKATEYLNQIAKYTRILSNYDDYQLYNEVFFELVTKANPNDTEITKHQLTLATLSTKTQQYCGDAVKLAYVEYPQTRESVHALAMAIENLDLNPEGGLESELKAIMQHLTNPEELLADVNKFLHSETQVDVALELIHNLLEKVDAETKVAIFKKVTPELPYKFSSCSPRTLMYIAKILNLMPIPEEYNELDKFNIAVQLSFAAPNLSGAITSFDDPLVPMLIEFTQKRKDAPTFEIVVKSLAPYGVIIYAVNFGIFASYPDEVKNALKEPKFIIEAIHYLLKNNAVTDDTIQIVAEAYINALKSDILNDEEQLKKCVEILPQLNQFHAILLKLFLENCAYINNAIVVRKFCEFLIKSELAASEQFPLETIGTLARYLIIDEEDTQTTATVSKFLGILANMESIPCPTTANNIATYYCSEGDRMAQYQAYLLKQAIAFPNTGYEALAAGTPKLTDKNTTILTKNIENSYANQRLYSQYFISLSRNNVTQALEQFKVAVNDVVPALIQFTKPPPPKEFYDAAFFTILWLVQNVVKEEKDIKLLFAITRIAIPGPAMTDQCADSVIKTLKALITLNKGSIPDNVVKKILDSSFPEFIPIMFAAIGKERIDDAIITIIQHAMTKPFGYNYSEQLQAILNAGKKAKVLERFFQRFARLADRNDCIKLLELMAEVAKVARHLSIPYTSTKNDHEWIEIIIPYSIHVDEKIRGYALTILKNVYEVGCSVETSGLAHSEITTIVHTLWSEIVKRLDRDCILRVFKFCAKNLDKSEAASIFAAAVIDHRPDCIDEKDFDALFLLEANTFMFNNIFESLKKYSEDNKRRVVAKMFAIGYRPMTLSVFRAMIKEPDFVKAIFIEITAQQNHDKFLEIVEAFYETSEFDPVIFLIVLSFYSVQKQTRRKVKGLQSLMSSVLSQQIIKSTIINPQNLAIEDDLHLALKDIAFKTYNLSVDQLKAIAENAEAYVKSGEDMTSMTFGTLFAILAAQFAVLKTNQDLCLTFYKLFIMSIENATTHTAGFILAAFNQVTQEDIIEQISHEYKQSIIVHAAAALAETALSEKHIDDNLSLMCCVFSKFDEKAEVAEKVYVALDAASNKIAHRKDMMEALLTICHLQKVKFTEKGIARPAAILLRCFSERKDIAEIAYNILKEITEKETVEEVIFGTCENIERLPNVANNCVLSCTVPMITERTIEILHALAKFQTRIYSKAAGFYENLYPIAFKVIEEGDAELVDKATCLLKSFEK
- binding: binds

B5: Histone H2A (protein, UniProt A2DHC5 1-139)
chain: MPAKKGVKKTATKTAVDGERQHPKTRSSRAGLQFPVGRLHRFLREGRYGERVGAGAPVFMAAVLEYLTVEVLELAGNAARDNKKTRISPRHIMLAVRNDEELNQLLSNITIASAGVVPHIHKVLLGNPKKGKDASQTQE
- binding: binds

B6: H^+-transporting two-sector ATPase (protein, UniProt A2ED49 1-610)
chain: MFTTKEANKQEQLRGQVYSVSGPVVVAENMTGAAMYELVKVGSDNLVGEIIQLEHDTATIQVYEETSGLTVGDSVIGTGKPLSVLLAPGLMTNIYDGIQRPLKDISDQSHSVFIPRGVSCDPIDLKKEWSFKPANFKEGDNVTGGDIIGYVNETSMIEHRIMLPPKACGKVKYIAEAGSYDVLHPVIGVEFDGKVTEYPILQEWPVRTPRPYAEKLVADFPLITGQRVLDCLFPVVQGGTCAIPGAFGCGKTVISQALSKYSNSDAIIYVGCGERGNEMAEVLMEFPELKVEIQGVEHPIMDRTTLVANTSNMPVAAREASIYTGITLAEYYRDMGYNVTMLADSTSRWAEALREISGRLAQMPADSGYPAYLGTRLASFYERAGRVSCYGNPHRSGSVSIVGAVSPPGGDLAGDPVTSATLQVVQVFWGLDKKLAQRKHFPSVSWTLSYSKYDDILRPYFVQFDPDFPNLRTEVRQILQEEQELSEIVQLVGKDSLAEPDKLTLEVARMVRDDFLQQNSYTPYDRVSPMWKTFWMLKNMMHFNDLARHILTESGEKRVTYEAIANHMSAEIQGLIRMKFTDPADGKEQCIENLRKLYQQIEDKFRTFSD
- binding: binds

B7: Coronin (protein, UniProt A2EIJ3 1-436)
chain: MTASPYRHVYAEVAKVDKSYQEVNISTTSVDTNLLAANYRYVAYPVETSGGGLFAVLPANGYGKVGTTNSVFRGHTGGVLDVDFNPFNDNIIASAAEDATLRVWQIKFNGTDVEKQNESLAVMKGHSRRVQRLTWNPAVNGAIATFGAENSVKVWDVAKAQCACTFKPGKDSLLDINWNQNGNLLCYPMKDKKLHVLDIRANTETFAVPSHPGLRGGRAVFYDKLNMVATTGFSASSGRQVAVRDIRNPEKPLAQLDIDSNNGILAPFVDEDLGVLILFSRGDALIRFYDLQSAENPLVQCNSFQNKEAVRAFARAPKYCVDTNVCEIDRFYVINQAKQLQTTQVIIPRKNAEIFQDDIYPETMKPVPGVEFDDWKGGKEPTFQKFSLENGYTPADGPAFSVTAAPEETFESLKAENTKLKARVAELEAEIAKLKK
- binding: binds

B8: DEAD/DEAH box helicase family protein (protein, UniProt A2D755 1-1123)
chain: MRPSNENQQNSNNSSNFQDGWQGNANYQQNSRMNPDNQDNQNYSQGSRFQNYSSRGESPATFSRNFPANSNYENSGDNQGFQPPSRNGSGFGNTANGSDRNTPINTNSGQSGWNQNFDQNPPNQNDFRSDQDRNSSNYTPNGNLNSNFGDNMNPNADQNQNGPQNDSNQWNSNRNTNSNDNWNENRNQSQNWNDQRGYNDDMNQNRNSNWNGNDNWNSNDNFRNDNPNGNGNRGWNDDRSGNWVGNDNWNGNQQNYDNQNGDWNRNGNWNDRNGNWNRNDDQGNYNRWDDRGNQNWNDRNWNQNGNWDQNRDNWNGNGPNGNWNRNDQWDDRNGNWNRSDRWNGNNDNWNGNQNRNYNDWNGNSNNGWNDNSNSNGNWNDNGNWNQNRNGFDNDNGNWNGNGNGNWNGNQNRNWNDNGNGNWNDNGNGRNDWNDNGNGNMNGNQNGNWNDNSNGNWNGNDNGNDRNGWNDNGNGKGNWNDNGNGDRNRDFNGNMNGNNWNDNGNGNWNDNSNRNWNDNGNGGWNRNSNDNMNGNNWDNNGNGNWNGNGNGNWNDNGNGNWNGNDNGNWNGNGNGNWNDNGNGNWNGNGNGNWNDNGNGNWNDNGNGNMNGNNWDNNGNDNWNQNGNGNNWNDDGNGNFGPPDNDDMMGNDYNGNGNGNMNGNDNGNMSFGGSSNSMKIDRDMNAKLCQLAEQIMNLPVEDPVPDIAHMNISMPEVSPEEFKDFTETYNIKLISDNPGPQTLFEFSPNFLDENTLSNIKKLEYTQPTDIQKIAIPIAYAGRDLIGIAKTGSGKTASYIIPAIKHVMLQNGREGPHVLIIAPTKELAQQIEIKANQLLENSPIKAVAIYASPNRREQINAVKKADIVIATFGRLLDFMSSNFVKLNGIGMVVIDEADNILKNDNQQQLGAILKHVPIDSQYLMWSASWIDEVRDLAEQYLKNYIKIVVDAFELTVNKDIKQIIIRKEGNPIIQVEEIIKKILADSKSDRIKILIFVNTSDKIDKTCDILNMEKVIKCMPIYSRLPPEERNATMKKFAEMKEPCALISTNLMSRGVELDVNYVIQMEIKDQFNEYVNRIGRTGRAGATGVAISLYDDNKNSAIRSDLIEYLKRAEQDVPDFLSSDY
- binding: binds

B9: Actin-like protein 3, putative (protein, UniProt A2E0V9 1-420)
chain: MSTPTTPPVIIDVGTGYTKMGYANNTRPNFIIPTLHAGRDLSKVTAAQMVGTEDLDFYIGEEGIGKTPTYNPINIMKHGQVDDWTKMEQFWEQCLFKYLRCEPEDHAILLTEPPLNSPDNREYTAEVMFETFNVPYLYIGMQAMLAIAASWTNKSAHTLTGCVVDSGDGVTHVIPVVEGYPISNAIVHVPVAGREMTQFIADFLKDREPQVPAEDRMEAARNIKERYCRVAKHPSATFAMFDADRAKYIETYTGISSKSGKPYTCEVGYERFLAPEVWFSPELVSNEYTTPISVLIDRAIQMSPITDRKKLYNNIVLSGGSTTYKGLAKRLQADVQALVDARLEDNARRASKASGTKVEANKIPVNIVEHKRQQYAVWYGGAMLASTGSAFYAKCHSKAMYDEYGPSIARASTMFGASAV
- binding: binds

B10: HTH Myb-type domain-containing protein (protein, UniProt A2ELI6 1-98)
chain: MEYGSKWTYIANFFPGRTDINLKNRWQKFKNQTTVVKSQEDNILRKENDYGVKAQEENKMRDGSVAALVNPQESEICFYEWLNSPEGAEEFFISNVSK
- binding: binds

Source: PMC10434240
